# Measurements reported in the supplement of paper PMC10849652.
# Sequences of proteins named here, by UniProt entry; tags and fusion partners are left off. A change or cut given only in a name is not applied to a line headed by its entry.
# UniProt Q9Y365: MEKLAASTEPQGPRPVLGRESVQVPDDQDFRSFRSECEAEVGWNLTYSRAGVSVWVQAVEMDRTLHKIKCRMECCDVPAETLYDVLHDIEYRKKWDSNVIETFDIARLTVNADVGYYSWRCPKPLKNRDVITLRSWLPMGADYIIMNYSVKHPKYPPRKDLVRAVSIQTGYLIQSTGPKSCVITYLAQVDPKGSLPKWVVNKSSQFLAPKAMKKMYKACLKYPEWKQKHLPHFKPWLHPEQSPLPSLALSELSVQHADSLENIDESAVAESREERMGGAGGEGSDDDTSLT
# UniProt P09132: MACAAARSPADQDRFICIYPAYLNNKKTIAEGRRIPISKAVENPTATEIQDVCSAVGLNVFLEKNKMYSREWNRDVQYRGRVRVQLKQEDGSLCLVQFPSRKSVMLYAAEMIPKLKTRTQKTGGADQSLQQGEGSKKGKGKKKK
# UniProt P30626: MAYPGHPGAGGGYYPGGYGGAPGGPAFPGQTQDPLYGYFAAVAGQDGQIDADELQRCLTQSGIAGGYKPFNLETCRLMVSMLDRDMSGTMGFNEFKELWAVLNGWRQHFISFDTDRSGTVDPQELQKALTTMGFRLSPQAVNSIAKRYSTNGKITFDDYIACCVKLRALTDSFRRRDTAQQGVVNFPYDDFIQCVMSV
# UniProt P51571: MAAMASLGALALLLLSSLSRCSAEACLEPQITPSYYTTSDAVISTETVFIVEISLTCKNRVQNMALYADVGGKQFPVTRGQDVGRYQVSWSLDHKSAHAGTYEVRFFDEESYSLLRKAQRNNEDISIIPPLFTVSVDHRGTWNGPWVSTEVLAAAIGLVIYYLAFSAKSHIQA
# UniProt P08240: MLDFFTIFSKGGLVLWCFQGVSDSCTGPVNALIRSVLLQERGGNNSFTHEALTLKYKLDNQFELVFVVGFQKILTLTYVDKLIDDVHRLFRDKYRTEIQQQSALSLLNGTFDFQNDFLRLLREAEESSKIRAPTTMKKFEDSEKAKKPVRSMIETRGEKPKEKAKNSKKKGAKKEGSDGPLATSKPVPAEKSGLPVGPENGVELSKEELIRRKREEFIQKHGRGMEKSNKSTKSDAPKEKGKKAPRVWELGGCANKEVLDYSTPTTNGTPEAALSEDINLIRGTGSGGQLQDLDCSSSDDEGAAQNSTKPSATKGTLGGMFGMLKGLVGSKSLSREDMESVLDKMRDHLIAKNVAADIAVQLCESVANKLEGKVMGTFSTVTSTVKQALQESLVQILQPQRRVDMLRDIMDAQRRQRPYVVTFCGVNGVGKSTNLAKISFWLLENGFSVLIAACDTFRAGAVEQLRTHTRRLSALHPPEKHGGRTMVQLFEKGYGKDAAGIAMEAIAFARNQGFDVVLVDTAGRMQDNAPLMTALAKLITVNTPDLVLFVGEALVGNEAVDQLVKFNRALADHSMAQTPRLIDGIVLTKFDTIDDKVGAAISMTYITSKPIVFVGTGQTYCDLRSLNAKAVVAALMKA
# UniProt Q14849, whole entry, looked up: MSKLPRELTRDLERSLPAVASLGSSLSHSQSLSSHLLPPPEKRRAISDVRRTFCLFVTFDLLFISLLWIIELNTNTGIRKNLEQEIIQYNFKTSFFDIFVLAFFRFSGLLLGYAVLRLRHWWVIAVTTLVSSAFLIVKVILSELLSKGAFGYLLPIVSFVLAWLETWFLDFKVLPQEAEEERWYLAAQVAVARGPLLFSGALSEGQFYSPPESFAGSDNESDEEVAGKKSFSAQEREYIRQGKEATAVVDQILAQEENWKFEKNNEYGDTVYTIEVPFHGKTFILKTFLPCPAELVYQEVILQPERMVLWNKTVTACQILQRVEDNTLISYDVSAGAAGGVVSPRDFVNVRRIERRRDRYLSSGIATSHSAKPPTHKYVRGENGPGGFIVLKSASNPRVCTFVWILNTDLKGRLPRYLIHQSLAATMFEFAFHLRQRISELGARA
# UniProt Q6ZRS2, whole entry, looked up: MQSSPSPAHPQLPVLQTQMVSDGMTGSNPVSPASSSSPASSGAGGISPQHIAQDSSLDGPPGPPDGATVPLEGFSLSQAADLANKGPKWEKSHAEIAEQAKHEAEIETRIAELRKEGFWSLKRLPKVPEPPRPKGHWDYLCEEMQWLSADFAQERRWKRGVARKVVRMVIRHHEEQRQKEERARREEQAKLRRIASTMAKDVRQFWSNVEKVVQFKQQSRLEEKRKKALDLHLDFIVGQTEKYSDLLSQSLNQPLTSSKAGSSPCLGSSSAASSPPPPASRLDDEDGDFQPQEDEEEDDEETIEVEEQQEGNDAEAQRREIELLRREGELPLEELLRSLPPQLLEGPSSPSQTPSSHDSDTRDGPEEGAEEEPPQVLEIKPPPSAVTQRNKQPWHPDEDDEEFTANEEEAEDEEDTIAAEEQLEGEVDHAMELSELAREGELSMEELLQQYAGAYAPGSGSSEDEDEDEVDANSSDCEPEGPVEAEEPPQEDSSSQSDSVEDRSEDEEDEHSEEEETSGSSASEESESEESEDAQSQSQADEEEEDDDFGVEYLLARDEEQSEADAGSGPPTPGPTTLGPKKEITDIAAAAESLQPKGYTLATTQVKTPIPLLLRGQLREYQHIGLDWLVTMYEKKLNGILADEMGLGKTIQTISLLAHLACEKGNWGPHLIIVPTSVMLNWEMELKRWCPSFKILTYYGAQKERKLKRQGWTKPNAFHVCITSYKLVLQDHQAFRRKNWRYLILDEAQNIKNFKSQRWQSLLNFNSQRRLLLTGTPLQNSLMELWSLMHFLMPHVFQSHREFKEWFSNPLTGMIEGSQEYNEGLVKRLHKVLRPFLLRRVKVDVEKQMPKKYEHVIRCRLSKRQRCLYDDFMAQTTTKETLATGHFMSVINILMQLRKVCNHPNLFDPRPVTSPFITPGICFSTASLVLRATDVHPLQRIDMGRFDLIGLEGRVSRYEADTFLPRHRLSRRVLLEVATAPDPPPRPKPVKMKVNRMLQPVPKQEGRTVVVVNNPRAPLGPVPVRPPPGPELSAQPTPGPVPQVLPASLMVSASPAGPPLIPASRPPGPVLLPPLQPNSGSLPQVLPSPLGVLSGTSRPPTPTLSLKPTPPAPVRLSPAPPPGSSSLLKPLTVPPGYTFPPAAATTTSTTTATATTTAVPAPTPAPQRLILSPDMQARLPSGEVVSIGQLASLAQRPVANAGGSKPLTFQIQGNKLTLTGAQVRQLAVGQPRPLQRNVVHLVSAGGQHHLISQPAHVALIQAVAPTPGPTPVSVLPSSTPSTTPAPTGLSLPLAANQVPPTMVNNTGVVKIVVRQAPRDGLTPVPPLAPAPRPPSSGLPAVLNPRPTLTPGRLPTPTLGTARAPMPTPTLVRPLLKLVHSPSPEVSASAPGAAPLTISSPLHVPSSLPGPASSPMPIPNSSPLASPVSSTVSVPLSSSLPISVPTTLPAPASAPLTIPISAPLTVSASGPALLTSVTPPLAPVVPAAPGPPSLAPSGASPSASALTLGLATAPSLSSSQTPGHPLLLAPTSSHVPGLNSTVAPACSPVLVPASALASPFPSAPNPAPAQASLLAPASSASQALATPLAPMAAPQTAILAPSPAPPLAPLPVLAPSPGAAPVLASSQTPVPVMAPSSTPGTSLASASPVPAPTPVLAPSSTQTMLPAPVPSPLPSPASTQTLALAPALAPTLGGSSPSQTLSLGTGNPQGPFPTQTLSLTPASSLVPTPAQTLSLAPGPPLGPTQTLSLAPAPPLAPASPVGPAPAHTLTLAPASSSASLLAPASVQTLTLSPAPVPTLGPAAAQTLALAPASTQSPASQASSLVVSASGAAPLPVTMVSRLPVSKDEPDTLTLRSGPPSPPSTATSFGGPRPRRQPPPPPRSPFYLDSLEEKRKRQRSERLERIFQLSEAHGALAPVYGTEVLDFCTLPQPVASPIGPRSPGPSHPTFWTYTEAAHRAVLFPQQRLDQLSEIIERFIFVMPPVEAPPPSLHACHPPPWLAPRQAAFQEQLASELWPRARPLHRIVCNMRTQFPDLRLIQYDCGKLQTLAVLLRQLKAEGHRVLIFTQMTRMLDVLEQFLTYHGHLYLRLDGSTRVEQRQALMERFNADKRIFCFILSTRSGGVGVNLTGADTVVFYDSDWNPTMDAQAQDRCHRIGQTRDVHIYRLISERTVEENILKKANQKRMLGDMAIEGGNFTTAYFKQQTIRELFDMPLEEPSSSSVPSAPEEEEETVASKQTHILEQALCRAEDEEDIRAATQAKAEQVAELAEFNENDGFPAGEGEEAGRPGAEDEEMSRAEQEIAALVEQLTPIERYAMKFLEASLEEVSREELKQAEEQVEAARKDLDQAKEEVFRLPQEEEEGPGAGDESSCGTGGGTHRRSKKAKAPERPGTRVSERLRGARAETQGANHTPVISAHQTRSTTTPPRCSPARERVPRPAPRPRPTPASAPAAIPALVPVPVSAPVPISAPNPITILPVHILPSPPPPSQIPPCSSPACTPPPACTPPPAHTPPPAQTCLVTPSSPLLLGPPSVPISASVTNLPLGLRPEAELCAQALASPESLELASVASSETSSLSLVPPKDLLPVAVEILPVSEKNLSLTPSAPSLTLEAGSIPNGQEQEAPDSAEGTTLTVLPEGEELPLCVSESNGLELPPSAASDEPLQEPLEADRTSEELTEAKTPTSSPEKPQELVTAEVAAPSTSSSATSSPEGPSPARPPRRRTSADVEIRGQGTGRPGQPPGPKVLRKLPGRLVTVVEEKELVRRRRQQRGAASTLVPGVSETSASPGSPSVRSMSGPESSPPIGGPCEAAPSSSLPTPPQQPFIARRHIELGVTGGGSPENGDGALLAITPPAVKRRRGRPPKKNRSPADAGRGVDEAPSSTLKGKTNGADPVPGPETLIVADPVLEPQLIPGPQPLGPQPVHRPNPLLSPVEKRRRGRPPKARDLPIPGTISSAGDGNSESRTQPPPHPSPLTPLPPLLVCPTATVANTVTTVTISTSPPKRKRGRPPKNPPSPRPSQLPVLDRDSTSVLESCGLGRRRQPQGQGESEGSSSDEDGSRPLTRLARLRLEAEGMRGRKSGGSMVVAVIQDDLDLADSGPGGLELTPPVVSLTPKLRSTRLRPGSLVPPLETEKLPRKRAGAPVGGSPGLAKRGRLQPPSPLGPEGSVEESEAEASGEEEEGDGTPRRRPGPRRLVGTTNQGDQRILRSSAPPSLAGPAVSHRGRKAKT
# UniProt O75494: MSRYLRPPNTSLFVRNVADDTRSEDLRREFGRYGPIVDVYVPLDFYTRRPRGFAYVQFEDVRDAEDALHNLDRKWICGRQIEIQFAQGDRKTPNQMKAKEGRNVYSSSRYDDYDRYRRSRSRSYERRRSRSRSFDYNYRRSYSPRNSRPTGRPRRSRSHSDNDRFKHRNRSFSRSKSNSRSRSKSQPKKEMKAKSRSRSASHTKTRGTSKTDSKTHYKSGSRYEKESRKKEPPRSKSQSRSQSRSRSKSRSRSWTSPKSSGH
# UniProt Q12772: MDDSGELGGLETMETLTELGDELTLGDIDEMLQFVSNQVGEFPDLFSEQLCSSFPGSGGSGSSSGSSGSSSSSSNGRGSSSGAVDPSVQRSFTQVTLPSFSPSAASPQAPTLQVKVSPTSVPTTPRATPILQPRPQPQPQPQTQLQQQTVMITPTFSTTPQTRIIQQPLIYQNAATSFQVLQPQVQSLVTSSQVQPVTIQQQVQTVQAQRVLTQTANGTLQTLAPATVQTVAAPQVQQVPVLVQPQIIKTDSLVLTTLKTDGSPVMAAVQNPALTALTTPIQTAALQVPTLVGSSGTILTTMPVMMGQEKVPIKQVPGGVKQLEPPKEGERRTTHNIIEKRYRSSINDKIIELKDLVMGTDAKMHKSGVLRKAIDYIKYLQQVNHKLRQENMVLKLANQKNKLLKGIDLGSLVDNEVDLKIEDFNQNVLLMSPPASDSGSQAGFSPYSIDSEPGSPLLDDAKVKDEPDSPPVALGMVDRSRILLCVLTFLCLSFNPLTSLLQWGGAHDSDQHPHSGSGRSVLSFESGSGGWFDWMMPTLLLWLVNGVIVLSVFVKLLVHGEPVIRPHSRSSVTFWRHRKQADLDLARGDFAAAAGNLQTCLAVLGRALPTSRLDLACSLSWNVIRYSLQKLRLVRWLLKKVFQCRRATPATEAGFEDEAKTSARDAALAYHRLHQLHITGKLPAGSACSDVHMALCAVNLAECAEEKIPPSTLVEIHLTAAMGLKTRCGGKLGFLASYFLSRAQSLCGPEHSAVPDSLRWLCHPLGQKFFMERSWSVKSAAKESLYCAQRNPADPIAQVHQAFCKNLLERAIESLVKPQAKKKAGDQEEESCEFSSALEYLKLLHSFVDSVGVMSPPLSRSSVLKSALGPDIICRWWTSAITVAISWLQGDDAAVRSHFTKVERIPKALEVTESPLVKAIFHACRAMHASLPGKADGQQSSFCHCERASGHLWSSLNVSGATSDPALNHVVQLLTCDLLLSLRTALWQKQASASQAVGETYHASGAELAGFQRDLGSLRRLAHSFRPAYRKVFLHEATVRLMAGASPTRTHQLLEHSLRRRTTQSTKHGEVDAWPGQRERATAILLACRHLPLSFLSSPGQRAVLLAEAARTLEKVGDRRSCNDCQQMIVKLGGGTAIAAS
# This is one part of the list.
# Experiments:
# Assay in all cases: log2 fold change, soluble protein after heating vs DMSO (PISA); higher = thermal stabilisation; K562 lysate, 10 uM; active = over 0.2 and 3.5 SD of the protein, either way, in both replicates (recomputed)
# [1] = compound: CN1CC[C@H](c2c(O)cc(O)c3c(=O)cc(-c4ccccc4Cl)oc23)[C@H](O)C1 [alvocidib]
# Procedure, shortened: (§1)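 Quantification was by TMTpro 16plex LC-MS/MS with equalised channel sums, applied to the supernatant after 21,000xg for 90 min. Samples were crude K562 extract at 1 mg/mL protein in PBS pH 7.4 with 1 mM MgCl2, treated with 10 μM compound for 30 min, heated for 3 min across 48°C-58°C, pooled and brought to 0.5% NP-40 at 4°C. Values are log-two fold changes in thermal stability relative to solvent controls, from duplicates.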
# [2] = compound: CN1CCc2c(c3ccccc3n2Cc2ccc(C(=O)NO)cc2)C1 [Tubastatin A]
# Procedure, shortened: as §1
# [3] = compound: CNC(=O)C1=CC=CC=C1NC2=NC(=NC=C2Cl)NC3=C(C=C(C=C3)N4CCOCC4)OC
# Procedure, shortened: as §1
# [4] = compound: CNC(=O)c1ccc(Nc2ncc(C(F)(F)F)c(NCc3nccnc3N(C)S(C)(=O)=O)n2)cc1 [defactinib]
# Procedure, shortened: as §1
# [5] = compound: CNc1nc(-c2ccc3c(N)n[nH]c3c2)cc(N2C[C@@H](C(=O)NC3CCCCC3)CC[C@H]2C)n1
# Procedure, shortened: as §1
# [6] = compound: COC(=O)N[C@@H](C)CNc1nccc(-c2cn(C(C)C)nc2-c2cc(Cl)cc(NS(C)(=O)=O)c2F)n1 [encorafenib]
# Procedure, shortened: as §1
# [7] = compound: COC(=O)[C@H](CCSC)NC(=O)C1=C(C=C(C=C1)NC[C@H](CS)N)C2=CC=CC=C2
# Procedure, shortened: as §1
# [8] = compound: COc1cc(Nc2ncc3c(n2)-c2ccc(Cl)cc2C(c2c(F)cccc2OC)=NC3)ccc1C(=O)O [alisertib]
# Procedure, shortened: as §1
# [9] = compound: COc1cc2nc(-c3cc(F)ccc3O)nc(N[C@@H]3CNC[C@H]3C(C)(C)O)c2cc1OC
# Procedure, shortened: as §1
# [10] = compound: COc1cc2ncnc(Nc3ccc(F)c(Cl)c3)c2cc1OCCCN1CCOCC1 [gefitinib]
# Procedure, shortened: as §1
# [11] = compound: CS(=O)(=O)CCNCc1ccc(-c2ccc3ncnc(Nc4ccc(OCc5cccc(F)c5)c(Cl)c4)c3c2)o1 [lapatinib]
# Procedure, shortened: as §1
# [12] = compound: CS(=O)(=O)N1CCN(Cc2cc3nc(-c4cccc5[nH]ncc45)nc(N4CCOCC4)c3s2)CC1 [pictilisib]
# Procedure, shortened: as §1
# [13] = compound: C[C@@H](Oc1cc(-c2cnn(C3CCNCC3)c2)cnc1N)c1c(Cl)ccc(F)c1Cl [crizotinib]
# Procedure, shortened: as §1
# [14] = compound: C[C@H](C1=CC=C(C=C1)C(=O)NC2=C3C=CNC3=NC=C2)N
# Procedure, shortened: as §1
# [15] = compound: C[C@H](Nc1ncnc2nc[nH]c12)c1cc2cccc(Cl)c2c(=O)n1-c1ccccc1 [duvelisib]
# Procedure, shortened: as §1
# [16] = compound: Cc1cc(Nc2cc(CN3CCOCC3)c3nc(C)c(Cc4ccc(Cl)cc4F)n3n2)n[nH]1 [gandotinib]
# Procedure, shortened: as §1
# [17] = compound: Cc1cc(Nc2cc(N3CCN(C)CC3)nc(Sc3ccc(NC(=O)C4CC4)cc3)n2)n[nH]1 [tozasertib]
# Procedure, shortened: as §1
# [18] = compound: Cc1ccc(-n2nc(C(C)(C)C)cc2NC(=O)Nc2ccc(OCCN3CCOCC3)c3ccccc23)cc1 [doramapimod]
# Procedure, shortened: as §1
# [19] = compound: Cc1ccc(NC(=O)c2ccc(CN3CC[C@H](N(C)C)C3)c(C(F)(F)F)c2)cc1Nc1nccc(-c2cncnc2)n1 [bafetinib]
# Procedure, shortened: as §1
# [20] = compound: Cc1cccc(CC(=O)N2CCc3c2ccc(-c2cn(C)c4ncnc(N)c24)c3F)n1
# Procedure, shortened: as §1
Target,log2 fold change [1],log2 fold change [2],log2 fold change [3],log2 fold change [4],log2 fold change [5],log2 fold change [6],log2 fold change [7],log2 fold change [8],log2 fold change [9],log2 fold change [10],log2 fold change [11],log2 fold change [12],log2 fold change [13],log2 fold change [14],log2 fold change [15],log2 fold change [16],log2 fold change [17],log2 fold change [18],log2 fold change [19],log2 fold change [20]
STARD10 (UniProt Q9Y365),inactive: 0.039,inactive: 0.109,inactive: -0.089,inactive: 0.125,inactive: -0.089,inactive: -0.014,inactive: 0.044,inactive: -0.041,inactive: -0.021,inactive: 0.031,inactive: 0,inactive: -0.036,inactive: -0.055,inactive: 0.077,inactive: -0.012,inactive: -0.185,inactive: -0.045,inactive: -0.049,inactive: -0.044,inactive: -0.09
SSU72 (UniProt Q9NP77),inactive: -0.127,inactive: -0.05,inactive: -0.035,inactive: -0.026,inactive: -0.032,inactive: -0.04,inactive: 0.183,inactive: -0.016,inactive: -0.013,inactive: -0.004,inactive: -0.02,inactive: 0.008,inactive: -0.042,active: -0.288,inactive: -0.004,inactive: 0.134,inactive: -0.074,inactive: 0.057,inactive: -0.052,inactive: 0.166
SRPK2 isoform 2 (UniProt P78362),inactive: 0.132,inactive: -0.118,inactive: 0.132,inactive: 0.087,inactive: 0.029,inactive: 0.024,inactive: -0.007,inactive: 0.01,inactive: 0.015,inactive: 0.02,inactive: -0.031,inactive: 0.004,inactive: -0.054,inactive: -0.099,inactive: 0.083,inactive: 0.1,inactive: -0.021,inactive: 0.182,inactive: -0.064,inactive: 0.017
SRP19 (UniProt P09132),inactive: -0.043,inactive: -0.013,inactive: 0.059,inactive: 0.034,inactive: -0.087,inactive: 0.034,inactive: -0.099,inactive: 0.023,inactive: 0.006,inactive: -0.003,inactive: 0.011,inactive: 0.035,inactive: -0.073,inactive: 0.019,inactive: 0.036,inactive: -0.036,inactive: -0.035,inactive: 0.023,inactive: 0.085,inactive: 0.057
SRI (UniProt P30626),inactive: 0.096,inactive: 0.066,inactive: 0.057,inactive: 0.128,inactive: 0.053,inactive: 0.029,inactive: -0.011,inactive: 0.064,inactive: -0.035,inactive: -0.191,inactive: 0.126,inactive: 0.004,inactive: 0.016,inactive: 0.169,inactive: 0.035,inactive: -0.091,inactive: 0.021,inactive: 0.019,inactive: -0.03,inactive: -0.071
SPAST (UniProt Q9UBP0),inactive: 0.003,inactive: 0.013,inactive: -0.024,inactive: -0.001,inactive: -0.017,inactive: 0.042,inactive: -0.019,inactive: -0.034,inactive: -0.007,inactive: -0.035,inactive: 0.04,inactive: -0.015,inactive: -0.01,inactive: 0.011,inactive: -0.017,inactive: -0.114,inactive: 0.072,inactive: 0.028,inactive: -0.108,inactive: 0.016
SSR4 (UniProt P51571),inactive: 0.024,inactive: 0.022,inactive: -0.019,inactive: 0.019,inactive: 0.002,inactive: -0.034,inactive: 0,inactive: -0.018,inactive: 0.011,inactive: -0.061,inactive: -0.021,inactive: -0.074,inactive: 0.046,inactive: -0.053,inactive: 0.006,inactive: 0.03,inactive: -0.074,inactive: 0.006,inactive: 0.011,inactive: -0.008
SRPRA (UniProt P08240),inactive: 0.015,inactive: -0.007,inactive: -0.014,inactive: 0.022,inactive: -0.045,inactive: 0.001,inactive: 0.014,inactive: 0.011,inactive: 0.019,inactive: -0.014,inactive: -0.011,inactive: 0.018,inactive: 0.152,inactive: -0.019,inactive: -0.04,inactive: -0.106,inactive: 0.026,inactive: -0.007,inactive: 0.018,inactive: 0.03
STARD3 isoform 3 (UniProt Q14849),inactive: -0.037,inactive: 0.079,inactive: 0.004,inactive: -0.019,inactive: 0.068,inactive: -0.029,inactive: 0.055,inactive: -0.007,inactive: -0.059,inactive: 0.081,inactive: -0.094,inactive: -0.087,inactive: -0.024,inactive: -0.072,inactive: -0.005,inactive: 0.027,inactive: -0.075,inactive: 0.021,inactive: -0.209,inactive: 0.084
SRCAP (UniProt Q6ZRS2),inactive: -0.018,inactive: -0.022,inactive: -0.011,inactive: 0,inactive: -0.103,inactive: 0.017,inactive: 0.101,inactive: -0.026,inactive: 0.009,inactive: -0.02,inactive: 0.013,inactive: -0.023,inactive: -0.001,inactive: 0.004,inactive: -0.017,inactive: -0.084,inactive: 0.06,inactive: 0.037,inactive: -0.028,inactive: -0.003
SPTBN2 (UniProt O15020),inactive: 0.019,inactive: -0.054,inactive: -0.01,inactive: -0.004,inactive: -0.041,inactive: 0.003,inactive: 0.036,inactive: -0.003,inactive: 0.023,inactive: -0.024,inactive: -0.01,inactive: -0.024,inactive: 0.017,inactive: -0.055,inactive: -0.017,inactive: 0.018,inactive: 0.005,inactive: 0.01,inactive: -0.053,inactive: 0.01
SRSF10 (UniProt O75494),inactive: -0.02,inactive: -0.076,inactive: -0.13,inactive: -0.06,inactive: -0.051,inactive: 0.006,inactive: -0.064,inactive: 0.116,inactive: 0.051,inactive: -0.014,inactive: 0.03,inactive: 0.097,inactive: -0.158,inactive: -0.005,inactive: 0.067,inactive: 0.001,inactive: 0.012,inactive: 0.054,inactive: -0.019,inactive: 0.058
SPTBN1 (UniProt Q01082),inactive: 0.02,inactive: -0.011,inactive: 0.006,inactive: -0.014,inactive: -0.005,inactive: 0.001,inactive: -0.003,inactive: -0.002,inactive: -0.004,inactive: -0.004,inactive: -0.011,inactive: -0.025,inactive: -0.006,inactive: 0.001,inactive: -0.011,inactive: -0.02,inactive: 0.004,inactive: -0.005,inactive: -0.027,inactive: 0.008
SREBF2 (UniProt Q12772),inactive: -0.045,inactive: -0.033,inactive: -0.016,inactive: -0.112,inactive: -0.012,inactive: -0.057,inactive: -0.002,inactive: 0.025,inactive: 0.053,inactive: 0.058,inactive: -0.033,inactive: -0.025,inactive: -0.013,inactive: -0.121,inactive: 0.122,inactive: 0.08,inactive: 0.043,inactive: 0.065,inactive: 0.008,inactive: 0.179
SPATA5 (UniProt Q8NB90),inactive: 0.033,inactive: -0.101,inactive: 0.007,inactive: 0.029,inactive: 0.085,inactive: 0.04,inactive: 0.008,inactive: 0.025,inactive: 0.004,inactive: -0.024,inactive: -0.017,inactive: -0.009,inactive: -0.046,inactive: -0.027,inactive: -0.015,inactive: -0.13,inactive: 0.02,inactive: -0.017,inactive: -0.05,inactive: 0.034
STAM2 (UniProt O75886),inactive: -0.002,inactive: 0.042,inactive: 0.023,inactive: -0.006,inactive: -0.015,inactive: 0.039,inactive: -0.001,inactive: -0.006,inactive: 0.001,inactive: -0.015,inactive: 0.032,inactive: -0.021,inactive: -0.008,inactive: 0.001,inactive: -0.018,inactive: 0.001,inactive: 0.012,inactive: 0.02,inactive: 0,inactive: 0.04

# Some entries already given, reduced to log2 fold change [17] and log2 fold change [12].
Target,log2 fold change [17],log2 fold change [12]
SRCAP (UniProt Q6ZRS2),inactive: 0.06,inactive: -0.023
SPTBN2 (UniProt O15020),inactive: 0.005,inactive: -0.024
